Patent US5912227A, “Method of enhancing nutrient uptake” (North Carolina State University, priority 1995, dated 1999)

Assay: Food intake, fasting body weight, small intestinal weight and length in treated mice
Type: in vivo, swiss-webster mice
Settings: for Food Intake / Fasting Body Weight / Length Small Intestine / Weight Small Intestine: mice; for Food Intake: s.c. once a day for three days (PYY, TGFα 300 μg/kg; somatostatin 120 μg/kg), feed per mouse over the three day period; for Fasting Body Weight / Length Small Intestine / Weight Small Intestine: s.c. once a day for three days; for Fasting Body Weight: after fast, prior to sacrifice; for Length Small Intestine / Weight Small Intestine: after sacrifice; for small intestine weight, comparison between treatment groups: mouse, in vivo

**Q.** For `C[C@H](N)C(=O)NCC(=O)N[C@H]1CSSC[C@@H](C(=O)O)NC(=O)[C@H](CO)NC(=O)[C@H]([C@@H](C)O)NC(=O)[C@H](Cc2ccccc2)NC(=O)[C@H]([C@@H](C)O)NC(=O)[C@H](CCCCN)NC(=O)[C@H](Cc2c[nH]c3ccccc23)NC(=O)[C@H](Cc2ccccc2)NC(=O)[C@H](Cc2ccccc2)NC(=O)[C@H](CC(N)=O)NC(=O)[C@H](CCCCN)NC1=O` [Somatostatin, somatostatin], which “Food Intake” value is on record?
**A.** The value was 9.1 g.

**Q.** What about the “Fasting Body Weight” value of the same molecule?
**A.** The value was 27.7 g.

**Q.** What about the “Length Small Intestine” value of the same molecule?
**A.** Its value is 467 mm.

**Q.** What about the “Weight Small Intestine” value of the same molecule?
**A.** Its value is 2.127 g.

**Q.** For “PYY: 36 amino acid hormonal peptide, produced by "L type" endocrine cells; member of the pancreatic polypeptide family [Peptide YY]”, which “Food Intake” value is on record?
**A.** The value was 9.2 g.

**Q.** And the “Fasting Body Weight” value?
**A.** Its value is 27.5 g.

**Q.** And the “Length Small Intestine” value?
**A.** The value was 454 mm.

**Q.** What about the “Weight Small Intestine” value of the same molecule?
**A.** Its value is 1.652 g.

**Q.** And the “small intestine weight, comparison between treatment groups” value?
**A.** The value was “no significant differences”.

**Q.** With Transforming Growth Factor alpha [TGFα] as the molecule, how does the “Food Intake” value read?
**A.** Its value is 11.0 g.

**Q.** And the “Fasting Body Weight” value?
**A.** Its value is 28.8 g.

**Q.** What about the “Length Small Intestine” value of the same molecule?
**A.** The value was 461 mm.

**Q.** And the “Weight Small Intestine” value?
**A.** Its value is 1.999 g.

**Q.** What about the “small intestine weight, comparison between treatment groups” value of the same molecule?
**A.** Its value is “no significant differences”.
